Laboratory results reported in paper PMC9479434.
Results are given in words; binding and its absence hold for the method and conditions named. Binding seen in cells or lysates may run through a third protein. Some results given as binding are weak or reduced against the parent protein; the word gives no strength.

Protein sequences, listed by entry. Tags and fused reporters are not part of them. Residues count along the entry.
UniProt Q01705, residues 1744-2531: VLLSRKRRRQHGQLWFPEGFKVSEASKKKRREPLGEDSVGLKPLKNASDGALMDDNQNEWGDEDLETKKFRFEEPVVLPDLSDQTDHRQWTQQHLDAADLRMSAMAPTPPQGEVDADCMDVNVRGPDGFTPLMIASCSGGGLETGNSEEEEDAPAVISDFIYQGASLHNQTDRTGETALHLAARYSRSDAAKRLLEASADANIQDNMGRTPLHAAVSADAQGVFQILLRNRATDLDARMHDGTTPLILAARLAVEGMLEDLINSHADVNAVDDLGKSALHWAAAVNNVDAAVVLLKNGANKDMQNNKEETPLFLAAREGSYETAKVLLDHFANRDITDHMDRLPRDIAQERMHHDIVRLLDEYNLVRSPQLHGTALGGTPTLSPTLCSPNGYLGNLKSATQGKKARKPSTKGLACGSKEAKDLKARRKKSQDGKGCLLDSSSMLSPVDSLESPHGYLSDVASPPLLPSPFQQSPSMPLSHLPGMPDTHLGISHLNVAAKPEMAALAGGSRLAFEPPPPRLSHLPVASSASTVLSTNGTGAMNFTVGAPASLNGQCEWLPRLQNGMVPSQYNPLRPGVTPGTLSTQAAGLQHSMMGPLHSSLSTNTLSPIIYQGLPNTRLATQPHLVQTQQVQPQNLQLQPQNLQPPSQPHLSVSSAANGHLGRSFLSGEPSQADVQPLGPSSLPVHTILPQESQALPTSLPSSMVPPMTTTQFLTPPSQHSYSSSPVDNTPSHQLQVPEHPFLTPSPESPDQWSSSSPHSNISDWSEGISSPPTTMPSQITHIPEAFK
UniProt Q02248: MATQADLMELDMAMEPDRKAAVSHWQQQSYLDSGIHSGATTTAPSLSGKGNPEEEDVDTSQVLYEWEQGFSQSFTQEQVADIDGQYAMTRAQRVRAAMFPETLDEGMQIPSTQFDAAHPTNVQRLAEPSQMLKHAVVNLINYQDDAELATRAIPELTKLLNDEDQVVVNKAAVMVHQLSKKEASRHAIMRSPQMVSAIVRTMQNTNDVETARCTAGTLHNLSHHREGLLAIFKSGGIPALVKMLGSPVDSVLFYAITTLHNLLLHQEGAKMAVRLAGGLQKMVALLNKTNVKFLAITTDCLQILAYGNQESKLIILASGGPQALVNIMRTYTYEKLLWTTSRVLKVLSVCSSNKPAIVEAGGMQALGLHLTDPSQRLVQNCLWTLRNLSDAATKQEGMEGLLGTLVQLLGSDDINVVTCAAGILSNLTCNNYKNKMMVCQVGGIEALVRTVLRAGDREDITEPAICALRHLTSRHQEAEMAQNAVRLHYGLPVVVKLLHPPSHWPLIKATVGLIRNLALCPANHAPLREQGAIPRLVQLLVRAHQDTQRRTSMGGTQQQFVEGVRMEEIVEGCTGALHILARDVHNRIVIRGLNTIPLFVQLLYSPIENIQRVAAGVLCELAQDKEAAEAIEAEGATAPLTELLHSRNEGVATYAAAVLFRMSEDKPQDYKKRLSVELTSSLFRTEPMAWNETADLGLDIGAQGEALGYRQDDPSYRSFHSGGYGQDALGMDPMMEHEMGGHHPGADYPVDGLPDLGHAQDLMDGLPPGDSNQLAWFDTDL

Target: Notch1 intracellular domain (mouse (endogenous in bone marrow-derived macrophages)) (UniProt Q01705)
Assay: co-IP; lysate of mouse bone marrow-derived macrophages (1 x 10^6) stimulated with LPS (100 ng/ml) for 6 h; endogenous proteins; which of the two was precipitated is not told in the text shown

binding: binds
Substance: β-catenin (from UniProt Q02248 1-781)
